The list shows a part of the results. Shown are side measurements of this screen, not its main read-out; they come without a call. Most of these compounds were active or inconclusive in the main read-out, so they are no random draw. Words in brackets tell the shape of the fitted curve; partial curves, single points and poor fits give uncertain potencies.

By AC50 is commonly meant the midpoint of the concentration-response curve, whichever way the signal moves.

The test is described as follows: IkB Signaling. Conditions: ABC-DLBCL IkBa-CBG/CBR dual luciferase ratio (green luciferase fused to IkBa over red control in OCI-Ly3 lymphoma cells), 4 h. The essentials: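 In this assay, an IκBα–CBG68 fusion accumulates when IKK-driven degradation is blocked; native CBR normalizes for cell number. OCI-Ly3 cells were treated 4 h with compound and doxycycline, then green and red light read after Chroma-Glo addition.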
Where [1] appears, read: measured here: control luc red channel unless noted.

Turning to `O=C(CN1N=C(c2ccc(Cl)cc2)CCC1=O)NCCc1ccccc1`, the AC50 under setting [1] is 12.6 µM [falling, partial curve, poor fit].

For `CCc1c(C)nc2nncn2c1NCc1ccc(Cl)cc1`, the AC50 under setting [1] was 12.6 µM [falling, partial curve].

As for `CCOc1ccc(NC(=O)c2oc3ccccc3c2NC(=O)c2ccc(OC)cc2OC)cc1`, the half-maximal activity concentration (AC50) under setting [1] was 39.8 µM [falling, single point].

In the case of `CCCn1c(NC(=O)c2cccc(S(=O)(=O)N3CCCC3)c2)nc2ccccc21`, under setting [1], the AC50 was 3.16 µM [falling, full curve].

As to `O=C(c1cccs1)N(Cc1nc2sc3c(c2c(=O)[nH]1)CCCC3)C1CCCC1`, the AC50 under setting [1] was 25.1 µM [falling, partial curve].

In the case of `COc1ccccc1N1C(=O)N(CC(=O)C(C)(C)C)c2ccccc2S1(=O)=O`, the AC50 under setting [1] is 2.51 µM [rising, partial curve].

For `O=C(NCc1cccnc1)C1CCCN(S(=O)(=O)c2ccc(Br)cc2)C1` (stereo not drawn), under setting [1], the AC50 was 20 µM [falling, partial curve].

Turning to `CCCCn1c(CN2CCOCC2)nc2c1c(=O)n(C)c(=O)n2C`, the concentration at half-maximal activity (AC50) is 12.6 µM [rising, partial curve] (measured here: IkB-luc green channel) and 2.51 µM [falling, full curve] (measured here: control luc red channel).

As to `O=C1CN(C(=O)COc2ccc(Cl)cc2Cl)C(c2ccccc2)c2cc(F)ccc2N1` (stereo not drawn), under setting [1], the AC50 is 10 µM [falling, partial curve].

Consider `CCC(=O)Nc1cccc(NC(=O)CSc2nnnn2Cc2ccccc2)c1`, for which the AC50 under setting [1] was 25.1 µM [falling, partial curve].

As to `CCOc1ccc(CCNC(=O)c2nn(C)c3c2CSc2ccccc2-3)cc1`, under setting [1], the AC50 is 25.1 µM [falling, single point].

In the case of `Cc1cccc(C(=O)NNc2ncnc3c2cnn3-c2ccc(C)cc2C)c1`, the AC50 under setting [1] was 15.8 µM [falling, single point].

On to `CCOc1ccccc1CNC(=O)CCCn1ccc2cc(S(=O)(=O)N3CCCC3)ccc21`, for which the AC50 under setting [1] is 20 µM [falling, partial curve].

Regarding `Cc1ccc(Cn2cnc3nc4c(cc3c2=O)CC(C)CC4)cc1` (stereo not drawn), under setting [1], the AC50 was 0.01 µM [falling, full curve, poor fit].

In the case of `COc1cccc(C(=O)Nc2nnc(S(=O)(=O)N3CCCC3)s2)c1`, under setting [1], the AC50 was 25.1 µM [falling, single point].

`CC(C)c1ccc(S(=O)(=O)c2cnc(SCC(=O)Nc3ccc4c(c3)OCCO4)[nH]c2=O)cc1`: the AC50 under setting [1] is 6.31 µM [falling, partial curve].

In the case of `Cc1ccc(OCC(=O)Nc2nnc(S(=O)(=O)N3CCCCCC3)s2)cc1`, under setting [1], the AC50 was 0.251 µM [rising, full curve].
